# From paper PMC12431657, “Discovery and mechanistic insights of dibenzoylmethane as a broad spectrum inhibitor of coronavirus” (PLOS Pathogens, 2025)
# Screen size: about 3,300 compounds; about 60 (2%) showed an effect of 50% or more. The list shows a part of the results.
# Tested on: HCoV-OC43
# Design: species or system RD; HTS, protection from HCoV-OC43 induced cell death, luminescent cell viability (CellCounting-Lite 2.0), inhibition rate
# Conditions: 24 h post infection, 1 h compound pre-incubation; 10 µM; inhibitor
row,Structure (SMILES),OC43 Inhibition rate
1,C[C@@H]1CC[C@]2(C(=O)O)CC[C@]3(C)C(=CC[C@@H]4[C@@]5(C)CC[C@H](O[C@@H]6OC[C@H](O)[C@H](O)[C@H]6O)C(C)(C)[C@@H]5CC[C@]43C)[C@@H]2[C@]1(C)O [Ziyuglycoside II],-3%
2,COC(=O)c1cc(O)c(O)c(O)c1 [Methyl gallate],0.3%
3,C/C=C/C(=O)C1=C(C)C=CCC1(C)C [Damascenone],0.2%
4,O=C1c2c(O)cccc2[C@@H]([C@@H]2O[C@H](CO)[C@@H](O)[C@H](O)[C@H]2O)c2cc(CO)cc(O)c21 [Aloin B],-0.2%
5,COc1ccc(C=O)cc1 [4-Methoxybenzaldehyde],3.4%
6,Cn1c(=O)c2nc[nH]c2n(C)c1=O [Theophylline],-0.2%
7,CC(=O)O[C@H](CC=C(C)C)C1=CC(=O)c2c(O)ccc(O)c2C1=O [Acetylshikonin],3.9%
8,COc1cc2c(cc1OC)[C@@H](Cc1ccc(Oc3cc(C[C@@H]4c5cc(OC)c(OC)cc5CCN4C)ccc3O)cc1)N(C)CC2 [Dauricine],0.3%
9,COC[C@@H](Cc1ccc(OC)c(OC)c1)[C@@H](COC)Cc1ccc(OC)c(OC)c1 [Phyllanthin],0.2%
10,CCCCCCCCCC(O)CC(=O)O (stereo not drawn) [3-Hydroxydodecanoic acid],-3.9%
11,CC(CC(=O)C[C@@H](C)[C@H]1CC(=O)[C@@]2(C)C3=C(C(=O)[C@@H](O)[C@]12C)[C@@]1(C)CC[C@H](O)C(C)(C)[C@@H]1C[C@@H]3O)C(=O)O (stereo partly drawn) [Ganoderic acid G],-1.7%
12,Cc1cc(=O)oc2cc(O)ccc12 [4-Methylumbelliferone],0%
13,C/C=C1/[C@H](O[C@@H]2O[C@H](CO)[C@@H](O)[C@H](O)[C@H]2O)OC=C(C(=O)OC)[C@H]1CC(=O)OCCc1ccc(O)c(O)c1 [Oleuropein],1%
14,C[C@@H]1O[C@@H](Oc2cc(O)c3c(=O)c(O)c(-c4ccc(O)c(O)c4)oc3c2)[C@H](O)[C@H](O)[C@H]1O [Vincetoxicoside B],-0.3%
15,CCCCCCCCCCC(=O)O [Undecanoic acid],-1.1%
16,O=c1[nH]cnc2c1ncn2[C@H]1C[C@H](O)[C@@H](CO)O1 [2'-Deoxyinosine],-0.4%
17,CC(C)=CC(O)C/C(C)=C/COc1c2ccoc2cc2oc(=O)ccc12 (stereo not drawn) [Notopterol],40.1%
18,CC(C)=CCC[C@](C)(O[C@@H]1O[C@H](CO[C@@H]2O[C@@H](CO)[C@H](O)[C@H]2O)[C@@H](O)[C@H](O)[C@H]1O)[C@H]1CC[C@]2(C)[C@@H]1[C@H](O)C[C@@H]1[C@@]3(C)CC[C@H](O[C@@H]4O[C@H](CO)[C@@H](O)[C@H](O)[C@H]4O[C@@H]4O[C@H](CO)[C@@H](O)[C@H](O)[C@H]4O)C(C)(C)[C@@H]3CC[C@]12C [Ginsenoside Rc],7.3%

# Part of the list above, with tabs:
row	Structure (SMILES)	OC43 Inhibition rate
11	CC(CC(=O)C[C@@H](C)[C@H]1CC(=O)[C@@]2(C)C3=C(C(=O)[C@@H](O)[C@]12C)[C@@]1(C)CC[C@H](O)C(C)(C)[C@@H]1C[C@@H]3O)C(=O)O (stereo partly drawn) [Ganoderic acid G]	-1.7%
12	Cc1cc(=O)oc2cc(O)ccc12 [4-Methylumbelliferone]	0%
